Results are given in words; binding and its absence hold for the method and conditions named. Binding seen in cells or lysates may run through a third protein. A result given as binding can be weak or reduced; the word gives no strength.

The chains behind the UniProt entries cited, without tags or fusion partners. Where a name states a change or a piece, a line headed by the entry shows the natural chain unless it says otherwise.
UniProt P00481: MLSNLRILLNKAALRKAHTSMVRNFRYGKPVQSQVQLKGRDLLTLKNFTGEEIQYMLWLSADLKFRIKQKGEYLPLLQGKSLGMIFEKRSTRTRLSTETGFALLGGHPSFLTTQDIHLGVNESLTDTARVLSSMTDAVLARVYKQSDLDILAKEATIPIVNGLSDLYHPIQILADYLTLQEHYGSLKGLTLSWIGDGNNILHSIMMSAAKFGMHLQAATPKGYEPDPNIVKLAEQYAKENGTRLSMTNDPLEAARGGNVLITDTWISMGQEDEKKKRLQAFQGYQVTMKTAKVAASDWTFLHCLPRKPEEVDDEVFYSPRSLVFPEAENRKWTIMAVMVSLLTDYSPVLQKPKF
UniProt Q15388: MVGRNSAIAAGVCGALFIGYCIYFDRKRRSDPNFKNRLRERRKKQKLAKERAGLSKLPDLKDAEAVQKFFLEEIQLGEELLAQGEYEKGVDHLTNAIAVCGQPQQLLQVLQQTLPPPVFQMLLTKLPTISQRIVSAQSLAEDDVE

The assay concerns the target ornithine transcarbamylase (OTC)-V5 (rat) (UniProt P00481). Put plainly: co-IP.

For TOMM20 (from UniProt Q15388 1-145), the binding entry is recorded as “binds”.

B1: TOMM40 (protein, UniProt O96008 1-361)
chain: MGNVLAASSPPAGPPPPPAPALVGLPPPPPSPPGFTLPPLGGSLGAGTSTSRSSERTPGAATASASGAAEDGACGCLPNPGTFEECHRKCKELFPIQMEGVKLTVNKGLSNHFQVNHTVALSTIGESNYHFGVTYVGTKQLSPTEAFPVLVGDMDNSGSLNAQVIHQLGPGLRSKMAIQTQQSKFVNWQVDGEYRGSDFTAAVTLGNPDVLVGSGILVAHYLQSITPCLALGGELVYHRRPGEEGTVMSLAGKYTLNNWLATVTLGQAGMHATYYHKASDQLQVGVEFEASTRMQDTSVSFGYQLDLPKANLLFKGSVDSNWIVGATLEKKLPPLPLTLALGAFLNHRKNKFQCGFGLTIG
In the case of B1, the binding result is listed as “binds”.

The values are drawn from paper doi:10.1101/2023.09.06.556408.
